# According to PubChem BioAssay AID2685 (National Center for Advancing Translational Sciences (NCATS), 2010):
# The other results are listed elsewhere or left out. Further columns of the screen follow, without active or inactive calls. The list favours compounds with an active or inconclusive main result. Words in brackets tell the shape of the fitted curve; partial curves, single points and poor fits give uncertain potencies.
# Assay: qHTS Assay for Lipid Storage Modulators in Drosophila S3 Cells;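 on cell number change: cells counted by Cell Tracker Red CMTPX staining in the red channel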
# Conditions: BODIPY lipid droplet fluorescence, 18-24 h; for cell number change: measured here: cell count max response, cells fed with added oleic acid
# Procedure, shortened: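 Laser-scanning cytometry quantifies lipid droplet accumulation (500–530 nm total intensity; droplet/cell object ratio) in oleic acid-fed (400 uM added) Drosophila S3 cells treated with a concentration series. 20 uM Triacsin C defined 100% inhibition.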
# [1] = measured here: lipid fluorescence (Fed channel) AC50, cells fed with added oleic acid
# [2] = measured here: cell number channel AC50, cells fed with added oleic acid
SMILES,cell number change [%],AC50 [1],AC50 [2]
CCCSc1nnc(NC(=O)c2ccco2)s1,17.1,"206 nM [rising, full curve, poor fit]",–
CN(C)C(=O)COC(=O)c1cccc(S(=O)(=O)N2CC3(C)CC2CC(C)(C)C3)c1 (stereo unspecified),-0.187,–,–
Cc1nn(C(=O)CCC(=O)NCc2ccc(OC(C)C)cc2)c2ccccc12,–,–,"2910 nM [rising, partial curve, poor fit]"
CC(C)N(Cc1ccccc1)C(=S)Nc1ccc(F)cc1,–,"116 nM [falling, full curve, poor fit]",–
Cc1ccc(-c2nnc(SCC(=O)N/N=C/c3ccccc3C(=O)O)n2C2CCCCC2)cc1,-11.3,"18400 nM [rising, partial curve]",–
Cc1nnc(SCC(=O)Nc2cc(Cl)ccc2Cl)n1CC1CCCO1 (stereo unspecified),13.3,–,–
O=c1cc(/C=C/c2cccs2)[nH]c2ccccc12,–,"6510 nM [falling, single point]",–
CN(CCC#N)C(=O)c1cc2c(s1)-c1ccccc1SC2,–,–,"1640 nM [rising, partial curve]"
C[C@H](NS(=O)(=O)c1ccccc1)C(=O)OCC(=O)NC(=O)Nc1ccc2c(c1)OCCO2,2.61,"580 nM [falling, single point]",–
Cc1ccc(C)c(N2CCN(S(=O)(=O)c3ccc(-c4cc(C)no4)s3)CC2)c1,56,–,"9200 nM [rising, partial curve]"
COc1ccc(OC(C)C(=O)NC2CC(C)(C)NC(C)(C)C2)cc1 (stereo unspecified),-26.2,"651 nM [falling, single point]","366 nM [falling, full curve, poor fit]"
O=C(Nc1ccncc1)c1cc(F)cc(F)c1,43.1,–,"18400 nM [rising, partial curve, poor fit]"
Cc1cccn2cc(CNC(=O)CC3CCCC3)nc12,-143,–,"29100 nM [falling, single point]"
Cc1sc2nc(CN3CCOCC3)nc(NS(=O)(=O)c3ccccc3)c2c1C,46.9,–,"9200 nM [rising, partial curve]"
CCCN(CC(=O)Nc1ccccc1C)C(=O)c1ccc2[nH]c3c(c2c1)CC(C)CC3 (stereo unspecified),-17.1,"3660 nM [falling, partial curve]",–
CN(C)c1ccc(NC(=O)Cn2ncn3c(cc4ccccc43)c2=O)cc1,-0.81,"820 nM [rising, full curve]",–
O=S(=O)(N/N=C/c1ccc2c(c1)OCO2)c1ccc(Br)cc1,-9.73,"29100 nM [falling, single point]",–
O=C(C1CC1)N1CCc2cc(Br)cc(S(=O)(=O)NCCN3CCOCC3)c21,6.38,"1160 nM [falling, single point]",–

# Quoted at random: two compounds from above, in no set order.
SMILES,cell number change [%],AC50 [1],AC50 [2]
Cc1cccn2cc(CNC(=O)CC3CCCC3)nc12,-143,–,"29100 nM [falling, single point]"
O=C(Nc1ccncc1)c1cc(F)cc(F)c1,43.1,–,"18400 nM [rising, partial curve, poor fit]"
